The text below walks through data of article PMC7819943, “Rice protein-binding microarrays: a tool to detect cis-acting elements near promoter regions in rice”.

The list shows a part of the results.

The target of the assay is T1, OsSMF1 (Oryza sativa, UniProt Q6ZLB0 1-436).
T1 sequence: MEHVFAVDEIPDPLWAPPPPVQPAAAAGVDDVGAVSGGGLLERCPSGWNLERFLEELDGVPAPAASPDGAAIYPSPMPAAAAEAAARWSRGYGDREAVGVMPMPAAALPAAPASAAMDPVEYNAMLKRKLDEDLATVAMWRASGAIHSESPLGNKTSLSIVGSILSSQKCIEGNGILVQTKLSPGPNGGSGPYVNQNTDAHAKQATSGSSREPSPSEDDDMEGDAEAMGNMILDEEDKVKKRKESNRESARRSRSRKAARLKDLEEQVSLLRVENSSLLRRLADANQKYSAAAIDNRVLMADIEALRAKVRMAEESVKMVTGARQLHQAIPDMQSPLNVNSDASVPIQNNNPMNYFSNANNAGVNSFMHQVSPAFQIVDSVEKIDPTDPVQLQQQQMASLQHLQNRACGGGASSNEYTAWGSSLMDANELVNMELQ
In words: protein-binding microarray (RPBM); PBS, 2% BSA, 51.3 ng/ul salmon testes DNA, 50 uM zinc acetate, 200 nM TF, 25 C, 1 h; high values mean tight binding. The note with it: protein: recombinant; tags: N-terminal polyhistidine and DsRed monomer fusion (pET32a); chain copies: 2; label: CyDye5-dUTP incorporated in the synthesized complementary strand; 3' TTTTT single-stranded linker to array surface; dsDNA, one strand shown. A digest of the protocol: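 The binding signal is fluorescence intensity per array feature (arbitrary units). Readings came from an Axon 4000B scanner after a washed, 2% BSA-blocked, double-stranded custom Agilent array had been incubated for 1 h at 25 °C with 200 nM protein and 50 µM zinc acetate. The protein was a Ni–NTA-purified transcription factor fused N-terminally to polyhistidine and DsRed, expressed in E. coli BL21-CodonPlus.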
Take “CAAAGCAATCTTGGAGTCATCTTCATTTCCATGTCCTGTTCGGAGTCACCTAGTGCAG”: the binding signal was 3410 fluorescence intensity (a.u.).
In the case of “GCCACCTCGGCCTCCTCCTCCTCGACATCCACGTCGCTCGCGGAGTCACCTAGTGCAG”, the binding signal was 4090 fluorescence intensity (a.u.).
For “GACGGCTCTGGCAAGCGAGGGCCACGATTGCGACGAGCGGCGGAGTCACCTAGTGCAG”, the binding signal is 3390 fluorescence intensity (a.u.).
For “CGCCGGCGTCGGACGCTGCCTGCGCCGAGGGCGCTGCTGCCGGAGTCACCTAGTGCAG” the value was 3390 fluorescence intensity (a.u.).
On to “CCGCCGGTCGCTGAGCCGGGACTCGCTGCCGCGGTGCGTCCGGAGTCACCTAGTGCAG”, for which the binding signal is 35400 fluorescence intensity (a.u.).
With “ACCCGCCGCGCCTCCTGCGCCGCCGCCGCCGCGGCCCCTGCGGAGTCACCTAGTGCAG”, the binding signal is 5790 fluorescence intensity (a.u.).
As for “CGAAGCCTCGATGTCACGCGGACGCCAACACAGCAGGCGCCGGAGTCACCTAGTGCAG”, the binding signal was 3200 fluorescence intensity (a.u.).
As to “ATGGAAGAAATGATAGGCTTGTCTAATAATTGTTGGTTGTCGGAGTCACCTAGTGCAG”, the binding signal was 33200 fluorescence intensity (a.u.).
“CACCGCCACGGCCCGCGCTGCGTCAGCCGACGAACCCACCCGGAGTCACCTAGTGCAG”: the binding signal is 4430 fluorescence intensity (a.u.).
With “GCTAGCCTTCCTTGCCAACTTTGCACATGTATATAGAGTCCGGAGTCACCTAGTGCAG”, the binding signal is 3390 fluorescence intensity (a.u.).
For the sequence “TGTTAGAAAGTCTTATAATATAAAACGGAGGAAATATTTACGGAGTCACCTAGTGCAG”, the binding signal was 6480 fluorescence intensity (a.u.).
In the case of “TTTAATTCAAATGCCAGCTAAGCGCTACGTCAACCCTACACGGAGTCACCTAGTGCAG”, the binding signal is 15500 fluorescence intensity (a.u.).
Next, “TGATCTCCTTCACTAAAAGAACTGTACGCTTGTTCTTTTGCGGAGTCACCTAGTGCAG”: 3870 fluorescence intensity (a.u.); “TGTCGCTGTTGTATACAGTGTATGAGTGTGTGACTGTGTGCGGAGTCACCTAGTGCAG”: 6540 fluorescence intensity (a.u.).
Next, “AACAGAGGTATTCTTCGTGTCTATGGGCCTGTTTGGGGAGCGGAGTCACCTAGTGCAG”: 26300 fluorescence intensity (a.u.); “TAATTTGTACCCGCGTACGTGTACACGTTGCTGACTTGCTCGGAGTCACCTAGTGCAG”: 10600 fluorescence intensity (a.u.); “CGCATACCGGCCAGAAACACGACGGCGACGAGGTGCACTACGGAGTCACCTAGTGCAG”: 41500 fluorescence intensity (a.u.).
With “ATTGTCCTCCCTTCTCCTCGCCTGTCAGCCTGTCACTACTCGGAGTCACCTAGTGCAG”, the binding signal was 3650 fluorescence intensity (a.u.).
As for “CCCCTCTTAATTATTCAACCCTCCCAGAAATATGACTCATCGGAGTCACCTAGTGCAG”, the binding signal is 6290 fluorescence intensity (a.u.).
Next, “TGCGCCGCACCGCGTCGCGCCACGCCGCGTGGGCCCGCGGCGGAGTCACCTAGTGCAG”: 3790 fluorescence intensity (a.u.).
Take “ATCCGGGCCGTCCGATCCCGCCACGTGGACGACGGAAACCCGGAGTCACCTAGTGCAG”: the binding signal is 20800 fluorescence intensity (a.u.).
With “TTCCGGTGGGGACGGCGCGGCGGACGTGGAGGTGGAGCGGCGGAGTCACCTAGTGCAG”, the binding signal is 6660 fluorescence intensity (a.u.).
On to “CGGTGCTTGTGGTTTGACTACTGAACGATGTACAACCGCGCGGAGTCACCTAGTGCAG”, for which the binding signal is 3570 fluorescence intensity (a.u.).
On to “AAGCATAAAACCAATCCTAGCTTCTTTTCCTAAACCCAACCGGAGTCACCTAGTGCAG”, for which the binding signal was 14600 fluorescence intensity (a.u.).
Next, “CAGTGTTACATCATCGACCGGTTATCATCTTTGTTTCGATCGGAGTCACCTAGTGCAG”: 3580 fluorescence intensity (a.u.); “TTCCCTCCGGCGTCAACATCGTCACAACGTCATTCTTATTCGGAGTCACCTAGTGCAG”: 4710 ± 501 fluorescence intensity (a.u.).
Next, “ACGGCCACGCCTCGCGTCGTCATAGTCGTCTTCCTCGATCCGGAGTCACCTAGTGCAG”: 4360 fluorescence intensity (a.u.); “TGGGCTCAATCCAACTCACATGCAGCGAGTGCTCGACTTGCGGAGTCACCTAGTGCAG”: 3630 fluorescence intensity (a.u.); “CCCTTCTCCTATCGTACGTGGCTGGGTGGCACACGGCGCCCGGAGTCACCTAGTGCAG”: 7270 fluorescence intensity (a.u.).
In the case of “CCAAGGTGCGTGCGTGCCTTCTGCGTGCGTTGCTGTTGCTCGGAGTCACCTAGTGCAG”, the binding signal is 5180 fluorescence intensity (a.u.).
“AATCTATCGTGTAGGTGTACGTGTTGATATCAAAGATGAACGGAGTCACCTAGTGCAG”: the binding signal was 3530 fluorescence intensity (a.u.).
For “GTTTTGACCGGTCTTCATACACGTGGCAGTACAGCGTGGCCGGAGTCACCTAGTGCAG” the value was 28600 fluorescence intensity (a.u.); for “CAGCCACTTACACAGTAGTTACACCTCATTTACACACACTCGGAGTCACCTAGTGCAG”, 4000 fluorescence intensity (a.u.); for “CACAGGATTGAGAGAATGGCTTCCAGCTCACTCGGGGTTTCGGAGTCACCTAGTGCAG”, 3160 fluorescence intensity (a.u.).
For “CAAATGTTCTTTTGACGTATATGACCACATATTTGCAGTACGGAGTCACCTAGTGCAG” the value was 3520 fluorescence intensity (a.u.); for “TACTGTAGCACCACATTGTCAATCATGGCGCAATTATGCTCGGAGTCACCTAGTGCAG”, 12900 fluorescence intensity (a.u.); for “CTCTTCATTTGTTAATTTAATTTGATTAATTCAGTGCTTCCGGAGTCACCTAGTGCAG”, 64900 fluorescence intensity (a.u.).
Take “ATTCTATAGGCCGATCGACGTGGCAGACCCGAGCCCAATACGGAGTCACCTAGTGCAG”: the binding signal is 7750 fluorescence intensity (a.u.).
Next, “ATCCTCCACGGTTGAGTGACTTGAATCCGCGGCGGTTTGACGGAGTCACCTAGTGCAG”: 3300 fluorescence intensity (a.u.); “CCAAACGGTGAAACACCACGTATGCTTCTTTTATTGATCTCGGAGTCACCTAGTGCAG”: 6280 fluorescence intensity (a.u.); “ATATACAGTACACGTTCTTGCCCTCATTGCCACATAGTACCGGAGTCACCTAGTGCAG”: 4020 fluorescence intensity (a.u.).
For “CGAGGCGGGACACGGCCACGTCGTACACGCGGTGCCGGGCCGGAGTCACCTAGTGCAG” the value was 3810 fluorescence intensity (a.u.).
